For at least one compound, name, drawing or mass did not settle the structure.
System: microglia
Experiment: Microglial proliferation assay of neuroinflammation (2H2O labeling, FACS-isolated microglia)
Format: in vivo, mice
Details: vs vehicle treated LPS group; p<0.001 ANOVA/Tukey
Method: FIG. 14 depicts microglial response to the neuroinflammatory toxin lipopolysacharride (LPS). LPS is administered every other day to mice intraperitoneally at the two doses indicated (1 and 4 mg/kg body weight). ^2H2O was administered concurrently. Some animals were harvested at each of the indicated time points, and microglia were isolated and analyzed for deuterium incorporation. […] Error bars indicate standard deviation.
FIG. 15 depicts the effects of two anti-inflammatory chemotherapeutic agents (dexamethasone and minocycline) on microglial proliferation. Mice were given ^2H2O and either intraperitoneal lipopolysaccharide (LPS) to induce neuroinflammation, or a vehicle (control). Mice given LPS were treated with either a vehicle or dexamethasone or minocycline. Microglia were then isolated and analyzed for deuterium incorporation as described herein.
Mice are labeled with ^2H2O for an appropriate period. Mice are anesthetized and perfused with 10 mL ice cold PBS (trans-cardiac perfusion). Brains are immediately harvested and placed on ice in cold PBS. […]
The resulting cells are stained with the macrophage specific markers F4/80 and CD11b, fixed in 4% paraformaldehyde (PFA), and then isolated by FACS. […] DNA is extracted from sorted cells, hydrolyzed, derivatized, and analyzed by GC/MS as described in Example 2, supra. […]

C[C@@H]1C[C@H]2[C@@H]3CCC4=CC(=O)C=C[C@]4(C)[C@@]3(F)[C@@H](O)C[C@]2(C)[C@@]1(O)C(=O)CO [dexamethasone]
microglial proliferation in LPS-treated mice: suppressed proliferation

CN(C)c1ccc(O)c2c1C[C@H]1C[C@H]3[C@H](N(C)C)C(O)=C(C(N)=O)C(=O)[C@@]3(O)C(O)=C1C2=O [minocycline]
microglial proliferation in LPS-treated mice: suppressed proliferation
